The target in data set [1] is T1, PUM1 PUF TR (repeat 6 Thr12/Arg16) (Homo sapiens) (UniProt Q14671).
T1 sequence: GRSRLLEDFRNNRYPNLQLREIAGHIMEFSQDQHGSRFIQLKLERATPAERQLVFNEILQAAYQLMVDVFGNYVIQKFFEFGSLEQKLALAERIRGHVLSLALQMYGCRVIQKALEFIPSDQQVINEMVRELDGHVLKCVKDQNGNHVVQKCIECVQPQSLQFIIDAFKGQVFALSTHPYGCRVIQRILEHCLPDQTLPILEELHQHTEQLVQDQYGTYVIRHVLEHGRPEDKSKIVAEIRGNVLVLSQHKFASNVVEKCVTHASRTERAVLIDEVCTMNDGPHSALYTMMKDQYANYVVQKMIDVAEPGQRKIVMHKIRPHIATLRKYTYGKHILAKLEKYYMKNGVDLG
Put plainly: one hybrid. To be noted: yeast three-hybrid; protein in cells; protein details: Gal4 activation domain fusion; variant of NRE.

The target of data set [2] is T2, PUM1 PUF GR (repeat 6 Gly12/Arg16) (Homo sapiens) (UniProt Q14671).
T2 sequence: T1 sequence with T218G
Put plainly: one hybrid. To be noted: yeast three-hybrid; purified recombinant protein; variant of NRE.

Data set [3] addresses T3, PUM1 PUF AR (repeat 6 Ala12/Arg16) (Homo sapiens) (UniProt Q14671).
T3 sequence: T1 sequence with T218A
Put plainly: one hybrid. To be noted: yeast three-hybrid; protein in cells; protein details: Gal4 activation domain fusion; variant of NRE.

Data set [4] deals with T4, PUM1 PUF SR (repeat 6 Ser12/Arg16) (Homo sapiens) (UniProt Q14671).
T4 sequence: T1 sequence with T218S
Put plainly: one hybrid. As to conditions: yeast three-hybrid; protein in cells; protein details: Gal4 activation domain fusion; variant of NRE.

Data set [5] deals with T5, PUM1 PUF CR (repeat 6 Cys12/Arg16) (Homo sapiens) (UniProt Q14671).
T5 sequence: T1 sequence with T218C
Put plainly: one hybrid. To be noted: yeast three-hybrid; purified recombinant protein; variant of NRE.

The target of data set [6] is T6, PUM1 PUF domain wild type (NQ) (Homo sapiens) (UniProt Q14671).
T6 sequence: T1 sequence with T218N, R222Q
Put plainly: EMSA. As to conditions: striking specificity shift stated; purified recombinant protein; label: 5'-fluorescein; variant of NRE (Fl). (In general: In EMSA bound probe runs differently from free probe, usually more slowly.)

Data set [7] concerns the target T6, PUM1 PUF domain wild type (NQ) (Homo sapiens). Put plainly: one hybrid. To be noted: yeast three-hybrid, purified recombinant protein.
Data set [8] has as its system T7, PUFx2 (16-repeat PUF) (Homo sapiens).
T7 sequence: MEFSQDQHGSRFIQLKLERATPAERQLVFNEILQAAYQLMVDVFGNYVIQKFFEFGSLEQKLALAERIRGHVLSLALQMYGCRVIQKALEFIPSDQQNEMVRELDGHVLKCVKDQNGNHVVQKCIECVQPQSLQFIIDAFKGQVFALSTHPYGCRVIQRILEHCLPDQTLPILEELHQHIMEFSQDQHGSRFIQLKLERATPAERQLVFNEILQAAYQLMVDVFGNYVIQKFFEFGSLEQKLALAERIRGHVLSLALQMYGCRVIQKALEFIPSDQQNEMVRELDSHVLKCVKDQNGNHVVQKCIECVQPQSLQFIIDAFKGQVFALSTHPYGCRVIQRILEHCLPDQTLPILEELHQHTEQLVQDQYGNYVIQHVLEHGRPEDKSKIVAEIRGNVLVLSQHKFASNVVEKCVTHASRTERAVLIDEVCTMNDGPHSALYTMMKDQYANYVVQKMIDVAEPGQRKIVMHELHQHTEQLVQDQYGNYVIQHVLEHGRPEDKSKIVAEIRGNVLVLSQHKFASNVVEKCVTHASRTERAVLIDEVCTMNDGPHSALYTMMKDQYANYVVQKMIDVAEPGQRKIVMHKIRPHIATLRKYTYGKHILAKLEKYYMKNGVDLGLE
Put plainly: one hybrid. To be noted: yeast three-hybrid, protein in cells, protein details: Gal4 activation domain fusion.

Data set [9] deals with T8, PUM1 PUF GR repeat 3 (Homo sapiens) (UniProt Q14671).
T8 sequence: T1 sequence with C108G, Q112R, T218N, R222Q
Put plainly: one hybrid. To be noted: yeast three-hybrid; higher affinity than wild-type NRE; protein in cells; protein details: Gal4 activation domain fusion; variant of NRE.

The target of data set [10] is T9, PUM1 PUF GR repeat 2 (Homo sapiens) (UniProt Q14671).
T9 sequence: T1 sequence with N72G, Q76R, T218N, R222Q
Put plainly: one hybrid. To be noted: yeast three-hybrid; higher affinity than wild-type NRE; protein in cells; protein details: Gal4 activation domain fusion; variant of NRE.

Data set [11] deals with T10, PUM1 PUF GR repeat 1 (Homo sapiens) (UniProt Q14671).
T10 sequence: T1 sequence with S36G, Q40R, T218N, R222Q
Put plainly: one hybrid. As to conditions: yeast three-hybrid; higher affinity than wild-type NRE; protein in cells; protein details: Gal4 activation domain fusion; variant of NRE.

Data set [12] addresses T11, PUM1 PUF GR repeat 4 (Homo sapiens) (UniProt Q14671).
T11 sequence: T1 sequence with N146G, Q150R, T218N, R222Q
Put plainly: one hybrid. As to conditions: yeast three-hybrid; higher affinity than wild-type NRE; protein in cells; protein details: Gal4 activation domain fusion; variant of NRE.

The mark [13] stands for this setting: significantly decreased, variant of NREx2.

Substitutions are numbered along the chain they refer to. For some assays here: No signal at the amounts used counts as a negative. Protein sequences can lack the tags named with them. For some assays here: Where cells or extracts were used, other partners may take part. For some assays here: The comparison behind a weaker result is the experiment's own reference, which may not be listed here. For some assays here: The exact form of at least one protein or probe is not confirmed.

“CCGGCUAGCAAUUGAAUAUAUUAAUUUAAUAAAGCAUG [NREU3A]”: the binding result in [1], in [2], in data set [3], in data set [4] and in data set [5] was “no binding” in each case.

As to AUUGCAUAUA [NREU3C (Fl)], the binding result in data set [6] is given as “binds more weakly”. For “CCGGCUAGCAAUUGGAUAUAUUAAUUUAAUAAAGCAUG [NREU3G]”, the binding result in [1], in [2], in data set [3], in [4] and in data set [5] was “no binding” throughout.

For “CCGGCUAGCAAUUGUUGUAUAUAAUAUAUUAAUUUAAUAAAGCAUG [NREx2]”, the binding result in [7] and in data set [8] (more efficient than 8-repeat PUF with its cognate RNA) was “binds” in each case. As to “CCGGCUAGCAAUUGUAUCUAUUAAUUUAAUAAAGCAUG [NREA6C]”, the binding result in [9] was “binds”.

For the sequence “CCGGCUAGCAAUUGUAUAUAUUAAUAUAUAAAAGCAUG [NREstem7]”, in [7] (variant of NRE), the binding result was “binds”.

Regarding “CCGGCUAGCAAUUGUAUACAUUAAUUUAAUAAAGCAUG [NREU7C]”, in data set [10], the binding result is recorded as “binds”. Take “CCGGCUAGCAAUUGUAUAUCUUAAUUUAAUAAAGCAUG [NREA8C]”: the binding result in data set [11] was “binds”. Turning to “CCGGCUAGCAAUUGUAUAUAUUAAUAUAAUAAAGCAUG [NREstem5]”, in data set [7] (variant of NRE), the binding result is reported as “binds”.

Consider “CCGGCUAGCAAUUGUAUAUAUUAAUAUAUACAAGCAUG [NREstem8]”, for which the binding result in data set [7] (bound with less efficiency, variant of NRE) is “binds more weakly”. Take “CCGGCUAGCAAUUGUCCCCUAUAAUAUAUUAAUUUAAUAAAGCAUG [NREx2mut2]”: in data set [8] (setting [13]), the binding result is given as “binds more weakly”. On to “CCGGCUAGCAAUUGCAUAUAUUAAUUUAAUAAAGCAUG [NREU3C]”, for which the binding result in data set [1], in data set [2], in data set [3], in data set [4] and in [5] was “binds” in each case.

For the sequence “CCGGCUAGCAAUUGUAUAUAUUAAUAUAUUAAAGCAUG [NREstem6]”, the binding result in data set [7] (variant of NRE) is recorded as “binds”. For “CCGGCUAGCAAUCCCUGUAUAUAAUAUAUUAAUUUAAUAAAGCAUG [NREx2mut1]”, the binding result in data set [7] (binds as well as NREx2, variant of NREx2) is recorded as “binds”; in [8] (setting [13]) it was “binds more weakly”. Turning to “CCGGCUAGCAAUUGUACAUAUUAAUUUAAUAAAGCAUG [NREU5C]”, in data set [12], the binding result is “binds”.
